Publication PMC3621835
No constants are given. Whether binding was seen depends on the method and setting. For some assays here: Binding seen in cells or lysates may run through a third protein. Some results given as binding are weak or reduced against the parent protein; the word gives no strength. Each block holds one substance with its values, some of them ahead of it.

Amino acid sequences for entries named in this document (tags omitted). Residues count along the entry.
UniProt P14211, residues 18-416: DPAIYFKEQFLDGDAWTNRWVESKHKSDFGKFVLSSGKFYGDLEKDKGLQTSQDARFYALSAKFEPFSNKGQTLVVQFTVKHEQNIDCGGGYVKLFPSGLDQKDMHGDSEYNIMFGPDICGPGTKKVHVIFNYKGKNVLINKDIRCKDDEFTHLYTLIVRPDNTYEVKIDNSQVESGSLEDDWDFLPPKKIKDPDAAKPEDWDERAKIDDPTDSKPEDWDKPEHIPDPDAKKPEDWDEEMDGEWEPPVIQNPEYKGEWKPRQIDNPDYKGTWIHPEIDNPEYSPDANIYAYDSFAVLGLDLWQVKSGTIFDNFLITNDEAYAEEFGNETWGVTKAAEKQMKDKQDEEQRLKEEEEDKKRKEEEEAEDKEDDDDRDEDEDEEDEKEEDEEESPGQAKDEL
UniProt P57716, residues 28-708: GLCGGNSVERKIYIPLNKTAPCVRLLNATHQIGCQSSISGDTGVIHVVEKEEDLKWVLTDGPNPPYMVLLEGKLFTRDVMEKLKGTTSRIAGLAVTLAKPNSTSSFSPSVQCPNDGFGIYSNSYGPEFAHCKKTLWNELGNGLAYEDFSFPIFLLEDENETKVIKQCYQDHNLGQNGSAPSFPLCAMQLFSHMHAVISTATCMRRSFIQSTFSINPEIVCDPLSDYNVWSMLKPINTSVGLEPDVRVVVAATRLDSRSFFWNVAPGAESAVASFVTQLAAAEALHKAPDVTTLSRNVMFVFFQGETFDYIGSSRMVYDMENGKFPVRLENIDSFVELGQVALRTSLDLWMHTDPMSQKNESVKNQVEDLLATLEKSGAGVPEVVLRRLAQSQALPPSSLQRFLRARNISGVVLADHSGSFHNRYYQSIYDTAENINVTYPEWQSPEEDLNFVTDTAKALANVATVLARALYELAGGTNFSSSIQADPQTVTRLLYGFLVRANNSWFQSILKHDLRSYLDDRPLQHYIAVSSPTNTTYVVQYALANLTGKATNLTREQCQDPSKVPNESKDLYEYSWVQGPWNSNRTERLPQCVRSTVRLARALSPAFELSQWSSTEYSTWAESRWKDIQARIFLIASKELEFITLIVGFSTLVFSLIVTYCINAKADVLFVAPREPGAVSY
UniProt P15253, residues 18-418: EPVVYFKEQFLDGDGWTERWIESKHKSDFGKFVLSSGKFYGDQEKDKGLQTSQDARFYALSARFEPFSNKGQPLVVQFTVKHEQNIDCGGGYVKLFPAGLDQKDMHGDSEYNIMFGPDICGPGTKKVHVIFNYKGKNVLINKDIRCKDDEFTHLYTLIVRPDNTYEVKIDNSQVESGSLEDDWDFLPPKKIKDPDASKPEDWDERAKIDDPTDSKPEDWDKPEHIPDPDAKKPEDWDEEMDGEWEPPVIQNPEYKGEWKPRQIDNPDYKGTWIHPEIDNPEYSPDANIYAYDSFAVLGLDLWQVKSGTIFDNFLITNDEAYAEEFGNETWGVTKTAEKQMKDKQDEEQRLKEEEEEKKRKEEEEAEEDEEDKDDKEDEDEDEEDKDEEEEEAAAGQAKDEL
UniProt P05067, residues 18-770: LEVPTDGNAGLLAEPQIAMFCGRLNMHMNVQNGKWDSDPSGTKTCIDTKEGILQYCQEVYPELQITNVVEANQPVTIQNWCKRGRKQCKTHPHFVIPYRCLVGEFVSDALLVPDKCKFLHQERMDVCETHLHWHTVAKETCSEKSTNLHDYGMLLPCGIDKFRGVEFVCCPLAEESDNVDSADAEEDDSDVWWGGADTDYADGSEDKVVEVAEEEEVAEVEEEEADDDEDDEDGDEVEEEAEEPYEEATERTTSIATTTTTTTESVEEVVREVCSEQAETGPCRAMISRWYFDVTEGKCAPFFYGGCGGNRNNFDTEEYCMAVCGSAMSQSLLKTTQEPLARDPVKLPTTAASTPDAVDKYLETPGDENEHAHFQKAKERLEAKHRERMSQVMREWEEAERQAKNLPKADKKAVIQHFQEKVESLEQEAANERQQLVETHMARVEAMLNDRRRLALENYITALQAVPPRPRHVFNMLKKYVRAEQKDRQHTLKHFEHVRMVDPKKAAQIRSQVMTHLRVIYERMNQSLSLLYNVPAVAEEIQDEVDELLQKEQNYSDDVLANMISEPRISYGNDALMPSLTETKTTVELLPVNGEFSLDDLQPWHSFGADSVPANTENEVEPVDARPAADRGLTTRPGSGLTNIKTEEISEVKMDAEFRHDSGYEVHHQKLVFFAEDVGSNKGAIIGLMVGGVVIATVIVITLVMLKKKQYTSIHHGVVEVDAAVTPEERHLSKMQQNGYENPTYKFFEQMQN
UniProt Q92542, residues 34-709: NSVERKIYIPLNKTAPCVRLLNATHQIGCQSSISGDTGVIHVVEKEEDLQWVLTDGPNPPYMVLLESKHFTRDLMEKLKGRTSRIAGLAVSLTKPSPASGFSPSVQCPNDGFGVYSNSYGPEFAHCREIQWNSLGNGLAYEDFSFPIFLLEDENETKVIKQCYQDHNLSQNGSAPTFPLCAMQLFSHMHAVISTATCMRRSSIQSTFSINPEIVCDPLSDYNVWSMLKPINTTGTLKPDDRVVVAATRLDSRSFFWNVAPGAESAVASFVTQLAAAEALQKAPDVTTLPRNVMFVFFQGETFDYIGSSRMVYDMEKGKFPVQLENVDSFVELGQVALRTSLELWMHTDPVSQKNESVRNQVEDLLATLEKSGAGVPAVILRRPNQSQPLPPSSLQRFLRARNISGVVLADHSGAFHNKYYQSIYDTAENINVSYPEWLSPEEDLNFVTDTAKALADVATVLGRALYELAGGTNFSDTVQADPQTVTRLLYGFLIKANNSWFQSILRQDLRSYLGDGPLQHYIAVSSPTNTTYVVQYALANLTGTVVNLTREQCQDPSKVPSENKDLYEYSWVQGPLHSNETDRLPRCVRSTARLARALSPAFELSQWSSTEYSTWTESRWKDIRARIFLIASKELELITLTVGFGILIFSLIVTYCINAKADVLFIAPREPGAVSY

How the values were obtained:
[1] = target: calreticulin (endogenous, mouse brain synaptosomal fraction) (mouse (endogenous in brain synaptosomal fraction)) (UniProt P14211); assay: co-IP; detergent extract (1% N-octyl β-D-glucopyranoside) of a synaptosomal fraction from mouse brain; antibodies 3 h at 4°C, Protein A/G beads overnight; Western blot
[2] = target: nicastrin (endogenous, mouse brain synaptosomal fraction) (mouse (endogenous in brain synaptosomal fraction)) (UniProt P57716); assay: as above
[3] = target: amyloid precursor protein (endogenous, mouse brain) (mouse (endogenous in brain synaptosomal fraction and brain homogenate)) (UniProt P12023); assay: as above
[4] = target: GST fusion protein comprising full-length calreticulin (rabbit) (UniProt P15253); assay: pull-down; GST or GST/calreticulin on glutathione-agarose beads with lysate of APP overexpressing CHO cells in the presence of Ca2+ or EGTA, overnight at 4°C; Western blot with 22C11; only the target purified
[5] = target: GST fusion protein comprising full-length calreticulin (rabbit) (UniProt P15253); assay: pull-down; GST or GST-calreticulin fusion proteins on glutathione-agarose beads with lysates of CHO cells overexpressing full-length APP (no Ca2+ or EGTA added) or expressing the C99 APP stump, overnight at 4°C; Western blot; only the target purified
[6] = target: GST fusion protein comprising full-length calreticulin (rabbit) (UniProt P15253); assay: pull-down; GST or GST-calreticulin fusion proteins on glutathione-agarose beads with solubilized membranes of HEK cells overexpressing presenilin, overnight at 4°C; Western blot with presenilin antibody 2953 or nicastrin antibody; only the target purified
[7] = target: T1, synthetic biotinylated APP-β peptide comprising the β-secretase cleavage site of APP; assay: ELISA; biotinylated APP-γ or APP-β peptide coated; recombinant calreticulin at different concentrations in PBS-T with 1% BSA, 1 mM CaCl2, 1 mM MgCl2, 1 mM MnCl2, 1 h, room temperature; calreticulin antibody CRT283 and HRP-coupled secondary antibody; both purified
T1 sequence (peptide, biotin on the N-terminus (biotin-TNIK...HQKC-OH)): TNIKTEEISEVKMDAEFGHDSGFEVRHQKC

binding [1]: binds
Substance: amyloid precursor protein (endogenous, mouse brain) (from UniProt P12023 18-770)

binding [2]: binds weakly
binding [3]: binds
Substance: calreticulin (endogenous, mouse brain synaptosomal fraction) (from UniProt P14211 18-416)

binding [4]: binds
binding [5]: binds
Substance: full-length amyloid precursor protein overexpressed in CHO cells (from UniProt P05067 18-770)

binding [6]: binds
Substance: nicastrin (HEK cells overexpressing presenilin) (from UniProt Q92542 34-709)

binding [1]: binds
Substance: nicastrin (endogenous, mouse brain synaptosomal fraction) (from UniProt P57716 28-708)

binding [7]: no binding
Substance: recombinant rabbit calreticulin (from UniProt P15253 18-418)
